The values below come from patent US20250163138A1 (Alexion, published 2025).

Protein sequences, listed by entry. Tags and fused reporters are not part of them. Residues count along the entry.
UniProt P01031, residues 19-1676: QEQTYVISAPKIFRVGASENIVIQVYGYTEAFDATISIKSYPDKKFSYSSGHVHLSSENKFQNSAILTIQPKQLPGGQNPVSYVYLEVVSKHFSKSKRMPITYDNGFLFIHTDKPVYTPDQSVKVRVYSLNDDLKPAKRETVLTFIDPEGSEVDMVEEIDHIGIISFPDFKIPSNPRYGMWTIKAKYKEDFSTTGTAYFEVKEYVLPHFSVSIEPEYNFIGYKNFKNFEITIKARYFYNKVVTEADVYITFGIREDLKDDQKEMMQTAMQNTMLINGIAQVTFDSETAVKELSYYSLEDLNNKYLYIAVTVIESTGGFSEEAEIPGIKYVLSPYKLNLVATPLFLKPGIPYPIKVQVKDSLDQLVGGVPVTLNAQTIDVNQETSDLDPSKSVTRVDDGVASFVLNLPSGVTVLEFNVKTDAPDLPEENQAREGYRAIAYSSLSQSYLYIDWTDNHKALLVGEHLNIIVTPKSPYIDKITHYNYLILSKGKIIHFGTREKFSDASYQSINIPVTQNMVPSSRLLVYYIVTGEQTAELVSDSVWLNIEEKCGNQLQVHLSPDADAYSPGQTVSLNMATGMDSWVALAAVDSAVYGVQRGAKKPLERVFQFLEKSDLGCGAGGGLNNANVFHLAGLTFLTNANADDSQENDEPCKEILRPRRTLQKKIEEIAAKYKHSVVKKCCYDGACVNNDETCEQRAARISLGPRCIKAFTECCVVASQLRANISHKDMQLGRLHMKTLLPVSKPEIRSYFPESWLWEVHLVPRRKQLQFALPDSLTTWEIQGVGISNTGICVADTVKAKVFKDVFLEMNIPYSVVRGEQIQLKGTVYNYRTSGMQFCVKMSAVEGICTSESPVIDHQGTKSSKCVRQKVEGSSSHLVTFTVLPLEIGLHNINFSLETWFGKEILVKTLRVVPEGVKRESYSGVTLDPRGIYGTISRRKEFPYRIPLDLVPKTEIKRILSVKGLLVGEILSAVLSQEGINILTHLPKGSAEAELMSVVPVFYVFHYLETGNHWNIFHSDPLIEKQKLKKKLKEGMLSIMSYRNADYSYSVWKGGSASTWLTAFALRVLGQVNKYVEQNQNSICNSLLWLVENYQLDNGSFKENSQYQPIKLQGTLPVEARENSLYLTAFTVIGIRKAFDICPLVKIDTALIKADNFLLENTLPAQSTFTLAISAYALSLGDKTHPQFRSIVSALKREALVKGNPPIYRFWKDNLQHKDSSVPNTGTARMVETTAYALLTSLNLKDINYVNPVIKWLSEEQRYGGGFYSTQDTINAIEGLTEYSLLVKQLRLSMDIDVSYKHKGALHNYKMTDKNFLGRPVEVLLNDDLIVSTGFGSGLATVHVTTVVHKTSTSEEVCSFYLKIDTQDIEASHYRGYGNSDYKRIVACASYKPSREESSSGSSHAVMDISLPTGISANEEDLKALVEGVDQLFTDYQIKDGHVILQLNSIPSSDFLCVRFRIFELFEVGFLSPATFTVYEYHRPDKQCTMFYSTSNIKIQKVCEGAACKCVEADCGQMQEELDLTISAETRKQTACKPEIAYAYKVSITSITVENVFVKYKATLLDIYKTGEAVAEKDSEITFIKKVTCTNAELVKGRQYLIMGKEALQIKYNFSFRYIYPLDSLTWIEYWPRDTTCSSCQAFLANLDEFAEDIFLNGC

The target in assay [1] is T1, human complement protein C5 (human, UniProt P01031 19-1676).
T1 construct: Native C5 is a two-chain protein made from one precursor; also called hC5; human C5
As to the kind of experiment: BLI, VHH-His on anti-penta-His tips, 50 nM C5. For orientation: In BLI a coated tip is dipped into the sample, and binding shifts an interference pattern.

In assay [2] the target is cynomolgus monkey (cyno) complement protein C5 (cynomolgus monkey). As to the kind of experiment: BLI, VHH-His on anti-penta-His tips, 50 nM C5.

Numbering of substitutions follows the chain as printed. No constants are given. Whether binding was seen depends on the method and setting. Some binding calls cover weakened binding; strength is not graded here.

B1: LCP0133 (VHH, not shown: small tags and cut ends)
VHH: EVQLVESGGGSVQAGGSLRLSCAFSGGRFSDYGMAWFRQGPGKEREFVSRISGNGRGTQYTDSVSGRFIISRDNDKNTVYLQMNDLKVEDTAIYYCARGSGPSSFNEGSVYDYWGQGTQVTVSS
In the case of B1, the binding result in assay [1] and in assay [2] was “binds” throughout.

B2: LCP0319 (VHH, not shown: small tags and cut ends)
VHH: EVQLVESGGGLVQAGGSLRLSCAAAGRSLSDYYIIWFRQPPGKEYEFVSSIRWNTGSTTYGDSVKGRFTISRDNAKSTVYLQMNSLKPEDTALYWCAAGLHLTPTSRTYNYRGQGTQVTVSS
Take B2: the binding entry in assay [1] and in assay [2] was “binds” in each case.

B3: LCP0105 (VHH, not shown: small tags and cut ends)
VHH: EVQLVESGGGLVQAGGSLRLSCTASGRTISTTVMAWFRQAPGKEREFVAAVHWGDESTVYADSVKGRFTISRDNAKNTVYLQMNYLKPEDTSVYYCAARPPTYVGSSRSSRAYDYWGQGTQVTVSS
As to B3, the binding entry in assay [1] and in assay [2] was “binds” each time.

B4: LCP0125 (VHH, not shown: small tags and cut ends)
VHH: B3 VHH with A35G, S57G, Y85A, R99K, S106T, D114V
Turning to B4, the binding entry in assay [1] and in assay [2] was “binds” in each case.

B5: LCP0134 (VHH, not shown: small tags and cut ends)
VHH: EVQLVESGGGLVQSGGSLTLSCVLSGSIFSSNTMGWHRQAPGKQREWVAITTSGGTTKYADSVKGRFTISRDNAKNTVYLRMNNLKPEDTGVYFCYASLAGIWGQGTQVTVSS
For B5, the binding entry in assay [1] and in assay [2] was “binds” each time.

B6: LCP0102 (VHH, not shown: small tags and cut ends)
VHH: EVQLVESGGGLVQAGGSLRLSCAASGIIPNIYAMGWYRQAPGKQRELVASIENGGSTNYADSVKGRFTISRDNARNTVFLQMHSLKSEDTAVYYCYAFRPGVPTDWGQGTQVTVSS
In the case of B6, the binding result in assay [1] and in assay [2] was “binds” in each case.

B7: LCP0085 (VHH, not shown: small tags and cut ends)
VHH: B6 VHH with G26S, G55L, S56P, T57A, R75K, D105T
As for B7, the binding entry in assay [1] and in assay [2] was “binds” throughout.

B8: LCP0142 (VHH, not shown: small tags and cut ends)
VHH: EVQLVESGGGLVQVGGSLRLSCAASGSIVDIKVMGWYRQAPGNERELVALINDADDSEYSPSMRGRFTISRDNSKNTVYLQMNSLKPEDTAAYYCAADRDSSWFKSPYIPGSWGQGTQVTVSS
In the case of B8, the binding entry in assay [1] and in assay [2] was “binds” throughout.

B9: LCP0082 (VHH, not shown: small tags and cut ends)
VHH: EVQLVESGGGLVQAGGSLRLSCAASGTSVVINSMGWYRQAPGKQRELVATIDLSGTTNYADSAQGRFTISRDNAENLNLVYLQMNNLNPDDTAVYYCNALLSRAVSGSYVYWGQGTQVTVSS
In the case of B9, the binding result in assay [1] and in assay [2] was “binds” each time.

B10: LCP0127 (VHH, not shown: small tags and cut ends)
VHH: EVQLVESGGGLVQAGGSLRLSCAASGLTFSDYYMGWFRQAPGKERDFLARIGKSGIGKSYADSVRGRFTISRDNAKNTVYLQMNNLKLEDTAVYYCAADRDIAYDARLTAEYDYWGQGTQVTVSS
B10: the binding entry in assay [1] and in assay [2] was “binds” throughout.

B11: LCP0135 (VHH, not shown: small tags and cut ends)
VHH: EVQLVESGGGLVQAGGSLRLSCAAPETEATYNVMGWYRRAPGKQRELVATMTIDYNTNYADSAKGRFTISRDNTKNTVYLQMNNLRPDDTAVYYCRVDLSRQISGSYNYWGQGTQVTVSS
Turning to B11, the binding result in assay [1] and in assay [2] was “binds” in each case.

B12: LCP0122 (VHH, not shown: small tags and cut ends)
VHH: EVQLVESGGGLVQAGGSLRLSCAAPETGATINVMAWYRQAPGKQRELVARVAIDNNTDYADHAKGRFTISRDNTKNTVYLQMNNLKPDDTAVYYCNVLLSRQISGSYGHWGQGTQVTVSS
For B12, the binding result in assay [1] and in assay [2] was “binds” each time.

B13: LCP0316 (VHH, not shown: small tags and cut ends)
VHH: EVQLVESGGGLVQAGGSLRLSCAASLRTLDNYGVGWFRQTPGREREFVSAVSWNGDRTYYQDSVKGRFTISREYAKNTVYLQMDSLKPEDTAVYYCAVNMYGSTFPGLSVESHYDYWGQGTQVTVSS
Regarding B13, the binding entry in assay [1] and in assay [2] was “binds” throughout.

B14: LCP0092 (VHH, not shown: small tags and cut ends)
VHH: EVQLVESGGGLVQPGGSLRLSCTSRIGTISNIDLMNWYRQAPGKQREFVASLQSTGTTDYADSVKGRFTISRDNAKNTLFLQMNSLNPEDTAVYYCHALIPRSPYNVWGQGTQVTVSS
B14: the binding entry in assay [1] and in assay [2] was “binds” in each case.

B15: LCP0083 (VHH, not shown: small tags and cut ends)
VHH: B14 VHH with T55N, T57A, D59N, Y95F, I100L, V107S
As to B15, the binding entry in assay [1] and in assay [2] was “binds” in each case.

B16: LCP0101 (VHH, not shown: small tags and cut ends)
VHH: B14 VHH with I100L, V107A
For B16, the binding entry in assay [1] and in assay [2] was “binds” in each case.

B17: LCP0114 (VHH, not shown: small tags and cut ends)
VHH: B14 VHH with K65R, I100L
As for B17, the binding entry in assay [1] and in assay [2] was “binds” each time.

B18: LCP0106 (VHH, not shown: small tags and cut ends)
VHH: EVQLVESGGGLVQAGGSLRLSCVVSGSILDINVMAWYRQAPGKQREFVARITSGGDIDYADPVKGRFTISTNGAKNTVYLQMNSLKPEDTAAYYCNVLLSRSSAGRYTHWGQGTQVTVSS
In the case of B18, the binding entry in assay [1] and in assay [2] was “binds” in each case.

B19: LCP0141 (VHH, not shown: small tags and cut ends)
VHH: EVQLVESGGGLVQAGGSLRLSCIASVTIADINVMGWYRQAPGKQREFVASIPTTGDKNYAESAKGRFTISRDNSQNTVAMQMNNLKPDDTAVYYCYVLLSRAVSGSYGHWGQGTQVTVSS
For B19, the binding result in assay [1] and in assay [2] was “binds” throughout.

B20: LCP0091 (VHH, not shown: small tags and cut ends)
VHH: EVQLVESGGGLVQAGGSLTLSCAASGRTDSRYAMGWFRQAPGKERELMAAISWSGRPTYYADSVKGRFTISRDNAKNTVSLQMNSLKPEDTAVYYCAYKRLPAWYTGSAYYSQESEYDYWGQGTQVTVSS
Take B20: the binding result in assay [1] and in assay [2] was “binds” throughout.

B21: LCP0103 (VHH, not shown: small tags and cut ends)
VHH: EVQLVESGGGLVQAGGSLTLSCVASGRTFSNYRMGWFRQAPGAEREFVGTIYWSTGRSYYGDSVKGRFIISGDNAKNTIHLQMNSLKPEDTGVYYCASGPENSAFDSWGQGTQVTVSS
Take B21: the binding entry in assay [1] and in assay [2] was “binds” each time.

B22: LCP0137 (VHH, not shown: small tags and cut ends)
VHH: EVQLVESGGGLVQPGGSLRLSCRASGFTYSTAAMGWVRQAPGKGLEWVSSISSLGSDRKSADSVKGRFTISRDNAKNTLYLQMNSLKPEDTAVYYCARFISNRWSRDVHAPSDFGSRGQGTQVTVSS
Turning to B22, the binding result in assay [1] and in assay [2] was “binds” throughout.

B23: LCP0097 (VHH, not shown: small tags and cut ends)
VHH: EVQLVESGGGLVQPGGSLRLSCAASESISSDSPMAWYRQAPGKQREMVARILPIGPPDYADAVKDRFSISRENAKNTVYLQMNSLKPEDTAVYYCNLLHLPSGLNYWGQGTQVTVSS
In the case of B23, the binding entry in assay [1] and in assay [2] was “binds” throughout.

B24: LCP0144 (VHH, not shown: small tags and cut ends)
VHH: EVQLVESGGGLVQAGGSLRLSCAASGIDGDINVMAWYRQAPGKQRELVASITIGGNTNYADSVKGRFTIARDNAKNRMSLEMNSLKSEDTAVYYCNTLLSRVHDGQYVFWGQGTQVTVSS
Turning to B24, the binding entry in assay [1] and in assay [2] was “binds” in each case.

B25: LCP0129 (VHH, not shown: small tags and cut ends)
VHH: EVQLVESGGGLVQAGGSLRLSCAASVASETIVSINDMAWYRQAPGKQRELVASITIHNNRDYADSAKGRFTISRDDTKNTVYLQMTHLKPDDTAVYYCTVLLSRALSGSYRFWGQGTQVTVSS
On to B25, for which the binding result in assay [1] and in assay [2] was “binds” each time.

B26: LCP0126 (VHH, not shown: small tags and cut ends)
VHH: EVQLVESGGGLVQAGDSLTLSCAASGSGFSINVMAWYRQAPGKQRDLVASMTIGGRTNYKDSLKGRFTISRDNTKNTAYLQMNSLKPEDTAVYYCYALLDRGIGGNYVYWGQGTQVTVSS
With B26, the binding entry in assay [1] and in assay [2] was “binds” each time.

B27: LCP0320 (VHH, not shown: small tags and cut ends)
VHH: EVQLVESGGGLVQAGGSLRLSCAAPETIFTINSMGWYRQAPGKQRELVAFINLDGNTNYADSAKGRFTISRDNAENTVYLQMDNLKPDDTAVYYCNVLLSRAISGSYVHWGQGTQVTVSS
On to B27, for which the binding entry in assay [1] and in assay [2] was “binds” each time.

B28: LCP0317 (VHH, not shown: small tags and cut ends)
VHH: EVQLVESGGGLVQAGGSLRLSCAASGSIFSINAMAWYRQAQGKQRELVADITKNDITDYADSVKGRFTIARDNAKNTVDLQMNSLKPEDTAVYYCTAALSRHPYRSWGQGTQVTVSS
B28: the binding result in assay [1] and in assay [2] was “binds” in each case.
